In patent US20230121197A1, “ANTIBODIES SPECIFICALLY BINDING THE CARBOXYMETHYLATED CATALYTIC SUBUNIT OF PROTEIN PHOSPHATASE 2A” (Medizinische Universität Wien, priority 2020, published 2023):

Test system: α-carboxymethylation of PP2Ac
Assay: H358 xenograft tumors, single dose DT-061 time-course: methyl-PP2Ac by IHC and western blot with 7C10-C5
Parameters: species or system Balb/c nu/nu mice
Conditions: mouse, in vivo
Description: Next, the immunohistochemical analysis of xenograft tumors was performed. In brief, five micron sections from formalin-fixed paraffin-embedded (FFPE) specimens were deparaffinized in Histo-Clear and ethanol, exposed to 0.3% hydrogen peroxide to block endogenous peroxidase activity, and incubated for antigen retrieval with a citrate-based antigen unmasking solution (H-3300, Vector Laboratories) in a pressure cooker. Tumor sections were blocked with Mouse Ig Blocking Reagent (BMK-2202, Vector Laboratories), and incubated with anti-carboxymethyl PP2Ac specific antibody (7C10-C5) or an antibody recognizing total PP2Ac (ab106262) at 4° C. for two nights. Washes were performed in PBS. Slides were subsequently developed using secondary anti-mouse immunoglobulins/HRP (K1497, Agilent), DAB peroxidase substrate as the chromagen, and hematoxylin for counterstaining nuclei. Slides were sealed, and randomized for subsequent blinded review. Two independent researchers scored the level of carboxymethylated PP2Ac staining (with 7C10-C5) in one section per tumor (min. 6 tumors per treatment/control group). […] Scores from 0-2 are considered low staining, 2-4 as moderate, and 4-6 as high intensity staining. Based on these scores the data was plotted as the percentage of slides from each time point that fell into each group (FIG. 14I).

For `O=S(=O)(N[C@@H]1CCC[C@H](N2c3ccccc3Oc3ccccc32)[C@H]1O)c1ccc(OC(F)(F)F)cc1` [DT-061], which “correlation between tPP2Ac densitometry and DT-061 serum concentrations” value is on record?
The value was “no correlation observed”.
